Assay results from article PMC3694632.
Results are given in words; binding and its absence hold for the method and conditions named. Binding seen in cells or lysates may run through a third protein. A result given as binding can be weak or reduced; the word gives no strength.

Sequences of proteins named here, by UniProt entry; tags and fusion partners are left off. A change or cut given only in a name is not applied to a line headed by its entry. Residues count along the entry.
UniProt Q51480: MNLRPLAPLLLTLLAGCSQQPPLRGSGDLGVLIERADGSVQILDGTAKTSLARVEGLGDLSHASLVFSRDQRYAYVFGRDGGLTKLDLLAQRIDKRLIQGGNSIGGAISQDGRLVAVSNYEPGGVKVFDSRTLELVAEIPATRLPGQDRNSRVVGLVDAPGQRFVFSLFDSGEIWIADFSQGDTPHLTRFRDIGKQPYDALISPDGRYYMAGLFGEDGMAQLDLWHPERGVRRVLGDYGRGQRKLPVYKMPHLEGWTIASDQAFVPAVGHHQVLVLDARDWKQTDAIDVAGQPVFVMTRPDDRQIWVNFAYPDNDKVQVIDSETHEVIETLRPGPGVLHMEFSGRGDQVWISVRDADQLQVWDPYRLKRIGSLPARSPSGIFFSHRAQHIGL
UniProt P24474, residues 26-568: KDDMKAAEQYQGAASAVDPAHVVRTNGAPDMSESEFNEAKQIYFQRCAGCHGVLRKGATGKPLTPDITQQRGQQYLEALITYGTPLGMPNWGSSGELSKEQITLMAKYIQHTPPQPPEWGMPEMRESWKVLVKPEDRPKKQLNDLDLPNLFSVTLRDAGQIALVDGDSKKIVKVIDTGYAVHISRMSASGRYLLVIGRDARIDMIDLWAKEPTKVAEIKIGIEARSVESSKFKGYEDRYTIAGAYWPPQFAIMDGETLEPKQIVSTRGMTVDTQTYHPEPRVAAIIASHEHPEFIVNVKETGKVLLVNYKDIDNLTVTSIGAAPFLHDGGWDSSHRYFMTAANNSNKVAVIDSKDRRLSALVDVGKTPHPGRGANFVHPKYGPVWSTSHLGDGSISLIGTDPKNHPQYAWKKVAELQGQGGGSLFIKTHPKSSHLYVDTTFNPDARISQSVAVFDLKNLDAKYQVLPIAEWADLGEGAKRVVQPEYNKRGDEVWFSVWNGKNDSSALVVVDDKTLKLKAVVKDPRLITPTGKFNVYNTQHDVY

Target: STrEP-tagged (C-terminal) NirF (P. aeruginosa PAO1) (UniProt Q51480)
Test: pull-down; affinity co-purification on Strep-Tactin resin from cell-free extract of P. aeruginosa PAO1 RM301 producing NirF-OneSTrEP, after in vivo cross-linking with formaldehyde; NirS detected by Western blot

In the case of “cytochrome cd1 nitrite reductase NirS (from UniProt P24474 26-568) (enzyme)”, the binding is reported as “binds”.
